From US9247745B2, “Substituted pyridazines for controlling invertebrate pests” (BASF SE, priority 2010, dated 2016)
Some results were stated once for a whole list of compounds, not compound by compound.

Columns and labels:
Assay type in all cases: in vivo
[1] = test system: Green peach aphid (Myzus persicae, mixed life stages); experiment: Green peach aphid (Myzus persicae, mixed life stages) foliar spray on infested bell pepper plants; conditions: 300 ppm, after 5 days
Method: II.2 Green Peach Aphid (Myzus persicae, Mixed Life Stages)
(§1) The active compounds were formulated in cyclohexanone as a 10,000 ppm solution supplied in 1.3 ml ABgene® tubes. These tubes were inserted into an automated electrostatic sprayer equipped with an atomizing nozzle and they served as stock solutions for which lower dilutions were made in 50% acetone:50% water (v/v). A nonionic surfactant (Kinetic®) was included in the solution at a volume of 0.01% (v/v).
Bell pepper plants at the first true-leaf stage were infested prior to treatment by placing heavily infested leaves from the main colony on top of the treatment plants. Aphids were allowed to transfer overnight to accomplish an infestation of 30-50 aphids per plant and the host leaves were removed. The infested plants were then sprayed by an automated electrostatic plant sprayer equipped with an atomizing spray nozzle. The plants were dried in the sprayer fume hood, removed, and then maintained in a growth room under fluorescent lighting in a 24-hr photoperiod at 25° C. and 20-40% relative humidity. Aphid mortality on the treated plants, relative to mortality on untreated control plants, was determined after 5 days.

[2] = test system: Cowpea aphid (Aphis craccivora); experiment: Cowpea aphid (Aphis craccivora) spray on potted cowpea plants; conditions: 300 ppm, assessed after 24, 72, and 120 hours
Method: II.3 Cowpea Aphid (Aphis craccivora)
The active compounds were formulated in 50:50 (vol:vol) acetone:water. The test solution was prepared at the day of use.
Potted cowpea plants colonized with 100-150 aphids of various stages were sprayed after the pest population had been recorded. Population reduction was assessed after 24, 72, and 120 hours.

[3] = test system: Vetch aphid (Megoura viciae); experiment: Vetch aphid (Megoura viciae) bean leaf disk microtiter plate test; conditions: test solution 2500 mg/L, bean leaf disks, 6 days
Method: II.4 Vetch Aphid (Megoura viciae)
The active compounds were formulated in 1:3 (vol:vol) DMSO:water with different concentrations of formulated compounds.
Bean leaf disks were placed into microtiterplates filled with 0.8% agar-agar and 2.5 ppm OPUS™. The leaf disks were sprayed with 2.5 μl of the test solution and 5 to 8 adult aphids were placed into the microtiterplates which were then closed and kept at 23±1° C. and 50±5% relative humidity under fluorescent light for 6 days. Mortality was assessed on the basis of vital, reproduced aphids. Aphid mortality and fecundity was then visually assessed.

[4] = test system: green peach aphid (Myzus persicae); experiment: Green peach aphid (Myzus persicae) systemic test, artificial diet under membrane; conditions: 2500 ppm in aphid diet, 3 days
Text: II.6 Activity Against Green Peach Aphid (Myzus persicae)
For evaluating control of green peach aphid (Myzus persicae) through systemic means the test unit consisted of 96-well-microtiter plates containing liquid artificial diet under an artificial membrane.
The compounds were formulated using a solution containing 75% v/v water and 25% v/v DMSO. Different concentrations of formulated compounds were pipetted into the aphid diet, using a custom built pipetter, at two replications. After application, 5 to 8 adult aphids were placed on the artificial membrane inside the microtiter plate wells. The aphids were then allowed to suck on the treated aphid diet and incubated at about 23+1° C. and about 50+5% relative humidity for 3 days. Aphid mortality and fecundity was then visually assessed.

[5] = test system: Cotton aphid (Aphis gossypii, mixed life stages); experiment: Cotton aphid (Aphis gossypii, mixed life stages) foliar spray on infested cotton plants; conditions: 300 ppm, after 5 days
Method: II.1 Cotton Aphid (Aphis gossypii, Mixed Life Stages)
as §1
Cotton plants at the cotyledon stage were infested with aphids prior to treatment by placing a heavily infested leaf from the main aphid colony on top of each cotyledon. Aphids were allowed to transfer overnight to accomplish an infestation of 80-100 aphids per plant and the host leaf was removed. The infested plants were then sprayed by an automated electrostatic plant sprayer equipped with an atomizing spray nozzle. The plants were dried in the sprayer fume hood, removed from the sprayer, and then maintained in a growth room under fluorescent lighting in a 24-hr photoperiod at 25° C. and 20-40% relative humidity. Aphid mortality on the treated plants, relative to mortality on untreated control plants, was determined after 5 days.

[6] = test system: Boll weevil (Anthonomus grandis); experiment: Boll weevil (Anthonomus grandis) insect diet microtiter plate test with eggs; conditions: test solution 2500 mg/L, sprayed onto insect diet, 5 days
[7] = test system: Silverleaf whitefly (Bemisia argentifolii, adult); experiment: Silverleaf whitefly (Bemisia argentifolii, adult) on sprayed cotton plants; conditions: 300 ppm, spray on cotton plants, 3 days after treatment
Method: II.7 Silverleaf Whitefly (Bemisia argentifolii, Adult)
as §1
Cotton plants at the cotyledon stage (one plant per pot) were sprayed by an automated electrostatic plant sprayer equipped with an atomizing spray nozzle. The plants were dried in the sprayer fume hood and then removed from the sprayer. Each pot was placed into a plastic cup and 10 to 12 whitefly adults (approximately 3-5 days old) were introduced. The insects were collected using an aspirator and 0.6 cm, nontoxic Tygon® tubing (R-3603) connected to a barrier pipette tip. The tip, containing the collected insects, was then gently inserted into the soil containing the treated plant, allowing insects to crawl out of the tip to reach the foliage for feeding. Cups were covered with a reusable screened lid (150-micron mesh polyester screen PeCap from Tetko, Inc.). Test plants were maintained in a growth room at 25° C. and 20-40% relative humidity for 3 days, avoiding direct exposure to fluorescent light (24 hour photoperiod) to prevent trapping of heat inside the cup. Mortality was assessed 3 days after treatment, compared to untreated control plants.

SMILES | mortality in comparison with untreated controls [1] | mortality in comparison with untreated controls [2] | mortality [3] | mortality in comparison with untreated controls [4] [%] | mortality in comparison with untreated controls [5] | mortality (egg and larval) [6] | mortality in comparison with untreated controls [7]
O=C(N=c1ccn(Cc2ccccn2)nc1)c1cnn(CC(F)(F)F)c1C(F)F [Compound 1] | at least 75% | at least 90% | at least 90% | 100 |  |  | 
Cc1c(C(=O)N=c2ccn(Cc3ccccn3)nc2)cnn1CC(F)(F)F [Compound 2] | at least 75% | at least 90% |  | 100 | at least 75% | at least 50% | at least 75%
C=CCn1ccc(=NC(=O)c2cnn(CC(F)(F)F)c2C)cn1 [Compound 3] |  | at least 90% | at least 90% | 100 | at least 75% |  | at least 75%
O=C(N=c1ccn(Cc2cccnc2)nc1)c1cnn(CC(F)(F)F)c1C(F)F [Compound 4] |  | at least 90% | at least 90% | 100 | at least 75% | at least 50% | at least 75%
Cc1c(C(=O)N=c2ccn(Cc3cccnc3)nc2)cnn1CC(F)(F)F [Compound 5] |  | at least 90% |  | 100 | at least 75% |  | 
COCCn1ncc(C(=O)N=c2ccn(Cc3ccccn3)nc2)c1C [Compound 8] | at least 75% | at least 90% | at least 90% | 100 | at least 75% | at least 50% | at least 75%
COCCn1ncc(C(=O)N=c2ccn(Cc3ccccc3)nc2)c1C [Compound 9] | at least 75% | at least 90% | at least 90% | 100 |  |  | at least 75%
Cc1c(C(=O)N=c2ccn(Cc3ccccn3)nc2)cnn1CC1CC1 [Compound 10] | at least 75% | at least 90% | at least 90% | 100 | at least 75% |  | at least 75%
Cc1c(C(=O)N=c2ccn(Cc3ccccc3)nc2)cnn1CC1CC1 [Compound 11] | at least 75% | at least 90% | at least 90% | 100 | at least 75% |  | 
Cc1c(C(=O)N=c2ccn(Cc3ccccn3)nc2)cnn1C(C)C [Compound 12] | at least 75% | at least 90% | at least 90% | 100 | at least 75% | at least 50% | at least 75%
Cc1c(C(=O)N=c2ccn(Cc3ccccc3)nc2)cnn1C(C)C [Compound 13] | at least 75% | at least 90% | at least 90% | 100 |  | at least 50% | 
Cc1c(C(=O)N=c2ccn(C)nc2)cnn1CC1CC1 [Compound 14] | at least 75% | at least 90% |  | 100 |  |  | 
C=CCn1ccc(=NC(=O)c2cnn(CC3CC3)c2C)cn1 [Compound 15] | at least 75% |  | at least 90% | 100 | at least 75% |  | at least 75%
Cc1c(C(=O)N=c2ccn(C)nc2)cnn1C(C)C [Compound 16] | at least 75% | at least 90% |  | 100 | at least 75% |  | 
C=CCn1ccc(=NC(=O)c2cnn(C(C)C)c2C)cn1 [Compound 17] | at least 75% | at least 90% | at least 90% | 100 | at least 75% |  | at least 75%
Cc1nocc1C(=O)N=c1ccn(Cc2ccccc2)nc1 [Compound 22] |  |  |  |  |  | at least 50% | 
Cc1ncc(C(=O)N=c2ccn(C)nc2)c(C)n1 [Compound 23] | at least 75% | at least 90% |  | 100 |  |  | 
Cc1ncc(C(=O)N=c2ccn(Cc3ccccc3)nc2)c(C)n1 [Compound 24] | at least 75% | at least 90% |  | 100 | at least 75% |  | 
Cc1ncc(C(=O)N=c2ccn(Cc3ccccn3)nc2)c(C)n1 [Compound 25] | at least 75% | at least 90% |  | 100 | at least 75% |  | 
COCn1ccc(=NC(=O)c2cnn(C(C)C)c2C)cn1 [Compound 27] |  |  | at least 90% | 100 |  |  | 
